Data published in PubChem BioAssay AID248 (DTP/NCI, 2004).
The list shows only some results of the screen, not a fair sample: it is rich in T/C values a quarter to a half above the control, in often repeated tests (any T/C) and in doses without a T/C. Further doses and runs are listed elsewhere. T/C gives the treated animals as a percentage of the vehicle group. Some doses have a count of surviving animals in place of a T/C: the source files T/C as zero there, which appears to mark a toxic dose or a test without result, not a measured value. Some doses without a T/C left all or most animals alive at the check, yet need not have been tolerated: survival well below the control is almost never listed, so the zero probably covers shortened survival too. Counts of survivors are from the toxicity check (mostly the fifth day) where no day follows; animals may have died later. Schedules are NCI's codes, taken here to give the interval after Q, in days (D) or hours (H), and the number of doses after X. Some doses were run more than once; their values stand side by side, smallest first. Some structures stand for samples that the source files as different forms (salt, stereo form or complex); doses refer to the form tested. Brackets with × give the number of equal values in this list. For survival time, the PubChem record calls one and a half times the control and up active, and a quarter to a half above the control has no call in these data; cut-offs in other NCI protocols can differ. Some T/C values carry the count of animals alive at the toxicity check (mostly the fifth day); where none is given, no animal had died by that day.

System: L1210 leukemia ip in BDF1 mice, survival T/C
Assay: NCI In Vivo Anticancer Drug Screen. Data for tumor model L1210 Leukemia (intraperitoneal) in B6D2F1 (BDF1) mice
Details: T/C endpoint: mean survival time, higher T/C = longer survival
[1] = dose: 100.0 mg/kg/injection, schedule: Q01DX009 (ip), vehicle: Klucel (hydroxypropylcellulose) (HPC)
[2] = dose: 400.0 mg/kg/injection, schedule: Q01DX001 (ip), vehicle: Klucel (hydroxypropylcellulose) (HPC)
[3] = dose: 200.0 mg/kg/injection, schedule: Q01DX009 (ip), vehicle: saline with Tween-80
[4] = dose: 300.0 mg/kg/injection, schedule: Q01DX001 (ip), vehicle: saline
[5] = dose: 100.0 mg/kg/injection, schedule: Q01DX009 (ip), vehicle: saline with Tween-80
[6] = dose: 100.0 mg/kg/injection, schedule: Q04DX002 (ip), vehicle: saline with Tween-80
[7] = dose: 200.0 mg/kg/injection, schedule: Q04DX002 (ip), vehicle: saline with Tween-80
[8] = dose: 400.0 mg/kg/injection, schedule: Q04DX002 (ip), vehicle: saline with Tween-80
[9] = dose: 200.0 mg/kg/injection, schedule: Q01DX001 (ip), vehicle: saline
[10] = dose: 100.0 mg/kg/injection, schedule: Q01DX001 (ip), vehicle: other
[11] = dose: 200.0 mg/kg/injection, schedule: Q01DX001 (ip), vehicle: other
[12] = dose: 200.0 mg/kg/injection, schedule: Q01DX009 (ip), vehicle: saline
[13] = dose: 200.0 mg/kg/injection, schedule: Q01DX009 (ip), vehicle: Klucel (hydroxypropylcellulose) (HPC)
[14] = dose: 400.0 mg/kg/injection, schedule: Q01DX009 (ip), vehicle: Klucel (hydroxypropylcellulose) (HPC)

Q: How did the survivor count (dose: 50.0 mg/kg/injection, schedule: Q01DX001 (ip), vehicle: saline) turn out when `O=C(O)c1[nH]c(=O)[nH]c(=O)c1N1CCCCC1` was run?
A: The survivor count was 1 of 6.

Q: What about the survivor count (dose: 100.0 mg/kg/injection, schedule: Q01DX001 (ip), vehicle: Klucel (hydroxypropylcellulose) (HPC)) of the same compound?
A: The survivor count was 1 of 6.

Q: What about the survivor count [1] of the same compound?
A: Its survivor count is 2 of 6.

Q: And the survivor count (dose: 200.0 mg/kg/injection, schedule: Q01DX001 (ip), vehicle: Klucel (hydroxypropylcellulose) (HPC))?
A: Its survivor count is 0 of 6.

Q: And the survivor count [2]?
A: Its survivor count is 1 of 6.

Q: With `CC1(C)C/C(=N/O)C/C(=N\O)C1` as the compound, how does the survivor count (dose: 100.0 mg/kg/injection, schedule: Q04DX003 (ip), vehicle: Klucel (hydroxypropylcellulose) (HPC)) read?
A: The survivor count was 0 of 6.

Q: How did the survivor count [3] turn out when `Nc1ccc(OCc2ccccc2)cc1` was run?
A: The survivor count was 2 of 6.

Q: Which results are given for `[O-]c1nn(-c2ccccc2)c2cccc[n+]12`?
A: survivor count (dose: 150.0 mg/kg/injection, schedule: Q01DX001 (ip), vehicle: saline): 2 of 6; survivor count [4]: 0 of 6

Q: How did the survivor count (dose: 100.0 mg/kg/injection, schedule: Q01DX001 (ip), vehicle: saline with Tween-80) turn out when `Cc1cc(OC(=O)Nc2c(C)cccc2C)cc(C)c1Cl` was run?
A: The survivor count was 6 of 6.

Q: What about the T/C [5] of the same compound?
A: Its T/C is 92 (2×), 93, 100 % of control.

Q: And the T/C [6]?
A: Its T/C is 90 and 91 % of control.

Q: What about the survivor count [6] of the same compound?
A: Its survivor count is 3 of 3 and 6 of 6.

Q: What about the survivor count [3] of the same compound?
A: The survivor count was 2 of 3.

Q: And the T/C [7]?
A: Its T/C is 86 and 100 % of control (2×).

Q: What about the survivor count [7] of the same compound?
A: The survivor count was 6 of 6.

Q: What about the survivor count (dose: 400.0 mg/kg/injection, schedule: Q01DX009 (ip), vehicle: saline with Tween-80) of the same compound?
A: The survivor count was 3 of 3.

Q: And the T/C [8]?
A: The T/C was 87, 92, 93 % of control.

Q: And the survivor count [8]?
A: The survivor count was 3 of 3.

Q: Which survivor count [4] does the source give for `Cc1ccc(N=Nc2c(C)nn(C(N)=S)c2-c2ccccc2)cc1` here?
A: The survivor count was 5 of 6.

Q: With `Oc1c(Br)cc(Br)cc1/C=N/c1nc(-c2ccccc2)cs1.Oc1c(Br)cc(Br)cc1/C=N/c1nc(-c2ccccc2)cs1.[Co]` as the compound, how does the survivor count [9] read?
A: Its survivor count is 3 of 3.

Q: Which survivor count (dose: 10.0 mg/kg/injection, schedule: Q04DX003 (ip), vehicle: Klucel (hydroxypropylcellulose) (HPC)) does the source give for `O=C1C=CC(=O)O1` (tested in a mixture with another compound) here?
A: Its survivor count is 3 of 6.

Q: What about the survivor count (dose: 12.5 mg/kg/injection, schedule: Q04DX003 (ip), vehicle: carboxymethylcellulose (CMC)) of the same compound?
A: The survivor count was 6 of 6.

Q: What about the survivor count (dose: 25.0 mg/kg/injection, schedule: Q04DX003 (ip), vehicle: carboxymethylcellulose (CMC)) of the same compound?
A: Its survivor count is 6 of 6.

Q: What about the survivor count (dose: 50.0 mg/kg/injection, schedule: Q01DX015 (ip), vehicle: carboxymethylcellulose (CMC)) of the same compound?
A: The survivor count was 6 of 6.

Q: What about the survivor count (dose: 50.0 mg/kg/injection, schedule: Q04DX003 (ip), vehicle: carboxymethylcellulose (CMC)) of the same compound?
A: Its survivor count is 4 of 6.

Q: And the survivor count (dose: 60.0 mg/kg/injection, schedule: Q01DX001 (ip), vehicle: carboxymethylcellulose (CMC))?
A: Its survivor count is 1 of 6.

Q: What about the survivor count [10] of the same compound?
A: The survivor count was 0 of 6.

Q: And the T/C (dose: 100.0 mg/kg/injection, schedule: Q01DX009 (ip), vehicle: saline)?
A: The T/C was 132 % of control [5 of 6 alive].

Q: And the survivor count (dose: 100.0 mg/kg/injection, schedule: Q04DX003 (ip), vehicle: other)?
A: Its survivor count is 4 of 6.

Q: What about the survivor count (dose: 150.0 mg/kg/injection, schedule: Q01DX001 (ip), vehicle: carboxymethylcellulose (CMC)) of the same compound?
A: Its survivor count is 5 of 6.

Q: What about the survivor count [11] of the same compound?
A: The survivor count was 0 of 6.

Q: And the survivor count [12]?
A: The survivor count was 0 of 6 and 3 of 6.

Q: And the survivor count (dose: 200.0 mg/kg/injection, schedule: Q04DX003 (ip), vehicle: other)?
A: Its survivor count is 1 of 6.

Q: And the survivor count (dose: 300.0 mg/kg/injection, schedule: Q01DX001 (ip), vehicle: carboxymethylcellulose (CMC))?
A: The survivor count was 1 of 6.

Q: What about the survivor count (dose: 400.0 mg/kg/injection, schedule: Q01DX001 (ip), vehicle: other) of the same compound?
A: The survivor count was 0 of 6.

Q: And the survivor count (dose: 400.0 mg/kg/injection, schedule: Q01DX009 (ip), vehicle: saline)?
A: The survivor count was 1 of 6 (2×) and 3 of 6.

Q: And the survivor count (dose: 400.0 mg/kg/injection, schedule: Q04DX003 (ip), vehicle: other)?
A: Its survivor count is 1 of 6.

Q: And the survivor count (dose: 400.0 mg/kg/injection, schedule: Q04DX003 (ip), vehicle: saline)?
A: The survivor count was 2 of 6 (3×) and 3 of 6.

Q: And the survivor count (dose: 800.0 mg/kg/injection, schedule: Q01DX009 (ip), vehicle: saline)?
A: Its survivor count is 0 of 6.

Q: Which results are given for `COc1ccccc1CC(C)N` (stereo not given)?
A: survivor count (dose: 80.0 mg/kg/injection, schedule: Q01DX001 (ip), vehicle: saline): 2 of 4; survivor count [9]: 0 of 4; survivor count (dose: 400.0 mg/kg/injection, schedule: Q01DX001 (ip), vehicle: saline): 0 of 4

Q: Which survivor count [12] does the source give for `CC12CC3(O)CCC1CCC2C(=O)C3` (stereo not given) here?
A: Its survivor count is 6 of 6.

Q: For `O=S(=O)(F)c1cccc(C[P+](c2ccccc2)(c2ccccc2)c2ccccc2)c1`, which survivor count [5] is on record?
A: Its survivor count is 1 of 6.

Q: What about the survivor count (dose: 200.0 mg/kg/injection, schedule: Q04DX003 (ip), vehicle: acetone) of the same compound?
A: The survivor count was 6 of 6.

Q: What about the survivor count (dose: 400.0 mg/kg/injection, schedule: Q04DX003 (ip), vehicle: acetone) of the same compound?
A: Its survivor count is 6 of 6.

Q: `O=NN(CCF)C(=O)Nc1ccccc1` was tested. Which T/C (dose: 9.0 mg/kg/injection, schedule: Q01DX001 (ip), vehicle: other) did it give?
A: The T/C was 135 % of control.

Q: What about the survivor count (dose: 37.0 mg/kg/injection, schedule: Q01DX001 (ip), vehicle: other) of the same compound?
A: The survivor count was 2 of 6.

Q: What about the survivor count (dose: 50.0 mg/kg/injection, schedule: Q01DX001 (ip), vehicle: other) of the same compound?
A: The survivor count was 0 of 6.

Q: And the survivor count (dose: 75.0 mg/kg/injection, schedule: Q01DX001 (ip), vehicle: other)?
A: Its survivor count is 0 of 6.

Q: What about the survivor count [10] of the same compound?
A: The survivor count was 0 of 6.

Q: What about the survivor count [11] of the same compound?
A: Its survivor count is 0 of 6.

Q: What about the survivor count (dose: 250.0 mg/kg/injection, schedule: Q01DX001 (ip), vehicle: other) of the same compound?
A: The survivor count was 0 of 6.

Q: What about the survivor count (dose: 300.0 mg/kg/injection, schedule: Q01DX001 (ip), vehicle: other) of the same compound?
A: The survivor count was 0 of 6.

Q: For `c1ccc(N=C(Nc2ccccc2)c2ccccc2)cc1`, which survivor count (dose: 400.0 mg/kg/injection, schedule: Q04DX002 (ip), vehicle: Klucel (hydroxypropylcellulose) (HPC)) is on record?
A: Its survivor count is 2 of 3.

Q: Which survivor count [13] does the source give for `O=C1C(=C(C(F)(F)F)C(F)(F)F)CCc2ccccc21` here?
A: Its survivor count is 5 of 6.

Q: What about the survivor count [2] of the same compound?
A: Its survivor count is 1 of 6.

Q: `CCC(CO)Nc1nc2ccccc2c2ccccc12` (stereo not given) was tested. Which survivor count [14] did it give?
A: The survivor count was 0 of 6.

Q: With `OC1(C#[C][Hg][C]#CC2(O)CCCCC2)CCCCC1` as the compound, how does the survivor count (dose: 400.0 mg/kg/injection, schedule: Q04DX003 (ip), vehicle: Klucel (hydroxypropylcellulose) (HPC)) read?
A: Its survivor count is 0 of 6.

Q: With `COc1ccc(OC)c(NC(=O)N(CCO)C2CCCCC2)c1` as the compound, how does the survivor count (dose: 200.0 mg/kg/injection, schedule: Q04DX003 (ip), vehicle: Klucel (hydroxypropylcellulose) (HPC)) read?
A: Its survivor count is 6 of 6.

Q: For `C1CC[N-]CC1.Oc1ccccc1C=NCCN=Cc1ccccc1O.[Co]`, which survivor count (dose: 12.5 mg/kg/injection, schedule: Q04DX002 (ip), vehicle: saline with Tween-80) is on record?
A: Its survivor count is 0 of 3.

Q: And the survivor count (dose: 25.0 mg/kg/injection, schedule: Q04DX002 (ip), vehicle: saline with Tween-80)?
A: Its survivor count is 0 of 3.

Q: What about the survivor count (dose: 100.0 mg/kg/injection, schedule: Q04DX002 (ip), vehicle: saline) of the same compound?
A: The survivor count was 0 of 3.

Q: And the survivor count (dose: 200.0 mg/kg/injection, schedule: Q04DX002 (ip), vehicle: saline)?
A: The survivor count was 0 of 3.

Q: What about the survivor count (dose: 400.0 mg/kg/injection, schedule: Q04DX002 (ip), vehicle: saline) of the same compound?
A: Its survivor count is 0 of 3.

Q: For `OC(CSc1ccccc1)(c1ccccc1)c1ccccc1`, which T/C (dose: 225.0 mg/kg/injection, schedule: Q03DX002 (ip), vehicle: saline with Tween-80) is on record?
A: The T/C was 128 % of control.

Q: `CCOC(=O)C(N=Nc1ccccc1)C(C)=O` (stereo not given) was tested. Which survivor count [1] did it give?
A: The survivor count was 3 of 6.

Q: And the survivor count [13]?
A: The survivor count was 0 of 6.

Q: And the survivor count [14]?
A: The survivor count was 0 of 6.
